Experiment: soluble on expression in E. coli; label from the status in PepcDB or PDB records

| Sequence | soluble on expression in E. coli |
| --- | --- |
| GHMAPLARLAANSARLLQLHKTVPQWHLTDGHLSIKRKFQFSDFNEAWGFMSRVALYADKVDHHPNWYNVYNTVDVELSTHDAAGLTEKDFALAKFMDDAAKNFEK | soluble |
| LLLQSPAVKFITNPEFFTVLHANYSAYRVFTSSTCLKHMILKVRRDARNFERYQHNRDLVNFINMFADTRLELPRGWEIKTDQQGKSFFVDHNSRATTFIDPRIPLQNG | soluble |
| MAGDPMPKYRSATTTHGRNMAGARALWRATGMTDADFGKPIIAVVNSFTQFVPGHVHLRDLGKLVAEQIEAAGGVAKEFNTIAVDDGIAMGHGGMLYSLPSRELIADSVEYMVNAHCADAMVCISNCDKITPGMLMASLRLNIPVIFVSGGPMEAGKTKLSDQIIKLDLVDAMIQGADPKVSDSQSDQVERSACPTCGSCSGMFTANSMNCLTEALGLSQPGNGSLLATHADRKQLFLNAGKRIVELTKRYYEQNDESALPRNIASKAAFENAMTLDIAMGGSTNTVLHLLAAAQEAEIDFTMSDIDKLSRKVPQLCKVAPSTQKYHMEDVHRAGGVIGILGELDRAGLLNRDVKNVLGLTLPQTLEQYDVMLTQDDAVKNMFRAGPAGIRTTQAFSQDCRWDTLDDDRANGCIRSLEHAYSKDGGLAVLYGNFAENGCIVKTAGVDDSILKFTGPAKVYESQDDAVEAILGGKVVAGDVVVIRYEGPKGGPGMQEMLYPTSFLKSMGLGKACALITDGRFSGGTSGLSIGHVSPEAASGGSIGLIEDGDLIAIDIPNRGIQLQVSDAELAARREAQDARGDKAWTPKNRERQVSFALRAYASLATSADKGAVRDKSKLGGAAALEHHHHHH | not soluble |
| MANGIKRQHEPPRIVGDLLQSEIAEKQARSIRCQMTIAKLPLVKDIEQFDFTGTPVNEALVRELATRSLVADQRNVVLIGGTGTGKSHLAIAIARALIRNGTRGRFFNVVDLVNKLEAETRSGKQGRTADYLGRLDFVILDELGYLPFAQAGGQLLFHLISRLYERTSIIVTTNLAFGEWPTVFGDAKMTTALLDRLTHHCEIIETGNESWRFKNRALEHHHHHH | soluble |
| MDDDNNRTLDFKEFMKGLNDYAVVMEKEEVEELFRRFDKDGNGTIDFNEFLLTLRPPMSRARKEVIMQAFRKLDKTGDGVITIEDLREVYNAKHHPKYQNGEWSEEQVFRKFLDNFDSPYDKDGLVTPEEFMNYYAGVSASIDTDVYFIIMMRTAWKL | soluble |
| MEQKIKFPRSQKVYLPGKLYPNIRVAMRKVEQVPSVSFEGEEKIATPNPEVYVYDTSGPFSDPSMSIDLKKGLPRLREEWIVGRGDVEQLPEITSEYGQMRRDDKSLDHLRFEHIALPYRAKKGEAITQMAYAKRGIITPEMEYVAIRENMNCEELGIETHITPEFVRKEIAEGHAVLPANINHPEAEPMIIGRNFLVKINTNIGNSATTSSIDEEVEKALWSCKWGGDTLMDLSTGENIHETREWIIRNCPVPVGTVPIYQALEKVNGVVEDLNWEIYRDTLIEQCEQGVDYFTIHAGIRRHNVHLADKRLCGIVSRGGSIMSKWCLVHDQESFLYEHFDDICDILAQYDVAVSLGDGLRPGSIHDANDEAQFAELDTMGELVLRAWEKNVQAFIEGPGHVPMHKIKENMERQIEKCHDAPFYTLGPLVTDIAPGYDHITSAIGAAQIGWLGTAMLCYVTPKEHLALPDKEDVRVGVITYKIAAHAADLAKGHPGAQVRDNALSKARYEFRWKDQFDLSLDPERAQGYFRAGHHIDGEYCTMCGPNFCAMRLSRDLKKNAKSDK | not soluble |
| MGLVKVIKNKAYFKRYQVKLRRRREGKTDYYARKRLTVQDKNKYNTPKYRLIVRITNKDVVAQLAYSKIEGDVVVASAYSHELPRYGLKVGLTNYAAAYATGLLLARRHLKTIGLDSTYKGHEELTGEDYNVEEEGDRAPFKAVLDIGLARTTTGSKIFAVMKGVADGGINVPHSESRFFGFDQESKEYNAEAHRDRILGKHVADYMTYLKEEDEDRYKRQFSKFLAAGLNADNLVATYQKVHSAIRADASPAAKKAAKPSKRHTAKRLTYDERKQRVADKKALLLQLKEQQE | not soluble |
| MGSDKIHHHHHHMFGSKINHSDLQKLEEENKNLTHKIEKFQSENLELKNKITSLEQAALESKLKTDLLNVLLTGVLKNITIIQGDMLENVNKAEVISSYSKTSLAEMDELNHIANSINASLGNITESANKTRDVAGTLHRSVDEITNVINLIKDVSDQTNLLALNAAIEAARAGEHGRGFAVVADEVRKLAEKTQKATTEVEMNINLLKQNANEMYTQSEQVEKISIDSNAHIMSFSEKFTHLVNEAHSTNSNAVGIASEAFVSLAKLDHIAFKLNGYKEIFSKSGKQLADHTSCRLGKWLASTGKERFGQNKSFLKINEPHEKVHENMNNAITIANTEDISKDITQHSIINKCEVAENASLDLFNVFKEMLDESDH | not soluble |
| MIQIQGQPRPEPLLLVLPTATSPLNISSSNISSKSSRINNNNDNENDEEDDGRDLDVEMKTESEWPRIERPTPKYADGRRISAPAVLAHGLFEIPTSCSVQITVLQQLLDQSSTLSLEPTNSPDSGVGTDSTPETSPSSSTTRRHAFAPPPPRPRPPTVPLPTVTQQIPWQTSTIWPWIQQAQSASTADATQRWLQSALLCPTTSASHPNLLTIPQISVQPQPTAPQTLLTAAPFISSTVFTPTCGDLLTTCTPSNPSLLHPYLLDTSRRFSEPNPAPLAQRTPGKKQKDGQVTYLWEFLLRLLQDDQYSPKFIKWIDQAKGIFKLVDSKAVSRLWGMHKNKPGMNYETMGRALRYYYQRGILQKVDGQRLVYRFVHLPSDVASECDSSCESADSCDSPKISPISLKLMLQPATSASDEA | not soluble |
| MLDIRGVRKSFRKPDGSELLVLDGIDFTLGEGEIIGLLGRSGSGKSTLLRSIAGLTPPSAGSVIYHGNEVTAPPPGIAMVFQGFALFPWLTVLENVQLGLEALGLSTGELHRRAIEAIDLIGLDGFESAYPRELSGGMRQRVGFARALVVHPNILLMDEPFSALDVLTAETLRTDFLDLWSEGQLPIKGVILVTHNIEEAVLMCDRILIFGSNPGRILNEIKVELPHPRARLDPAFRDLVERIYVEMTTRSASVPAGRRTEYFPGTGIGTILPHVSSNSLSGLLEAVAAAPYNGEADLPVIASSLHMEIDELFPVAETLQMLRFAEVAGGDIRLTTEGRQFADFDTDRRKHLFARHLLTYVALAAHIRRVLDERPVHQAPWSRFADELEDYMPPAAAVQTLRTIIALGRYAEIFSYDDEKQVFSLDNPLEHHHHHH | not soluble |
| MLDQPLPAEQCTQEEVSSEDEDEEMPEDTEDLDHYEMKEEEPAEGKKSEDDGIGKENLAILEKIKKNQRQDYLNGAVSGSVQATDRLMKELRDIYRSQSFKGGNYAVELVNDSLYDWNVKLLKVDQDSALHNDLQILKEKEGADFILLNFSFKDNFPFDPPFVRVVSPVLSGGYVLGGGAICMELLTKQGWSSAYSIESVIMQISATLVKGKARVQFGANKSQYSLTRAQQSYKSLVQIHEKNGWYTPPKEDG | soluble |
| MSLARKGVAKHGISIRLACVVYGISETCYRYQAKLSGENALVADWMLRLTQTHKRWGFGLCFLYLRNVKGYTWNHKRVYRIYRELELNLRIKPRRRIQRDYPGELDVPTAPNQVWSMDFMSDQLVSGKTFRTFNVIDDYNREGLGIEVDLSLPAQRVIRALDQIIEWRGKPAAIRCDNGPEYISQSLIDWANRNRITMIYIQPGKPTQNAYIERFNRTARHEWLDLHQFESIAHAQLLATQWLWQYNNERPNTAIGGVPPSRLRKAAEGHHHHHH | not soluble |
| MSLDRGHEMSRYARQMILPQAGGEGQARLAGARVLVVGAGGLAASALPLLAGAGVGQIDIFDGDHIELSNLHRQTLFAEGDVGRAKAEVAAERCGALNSGIVLTGTKRSITPENVILACRDTDLVLDCADSYAASYLLSDTCQALGKPLISASVLGLGGYVGGFCGGAPSLRAVFPDAPDSAASCATAGVLGPVVSILGSIQAQMALSALLELAPSPLGQMVQIDALSWRNSTFRFDGAPEPATAFRFVAPSDLSADDLIVELRTEGEAPQPAHPSARRMTVSEIEISDTNKEKRLALCCATGLRAWRSAEQLQPIWPGEIVLVAAATSEGHHHHHH | soluble |
| SAGYNLEAIEAAPLKDDLDIVIPTIRSLDFLEQWRPFLHHYHLIIVQDGDPSIKIRVPEGYDYELYNRNDINRILGPRANCISYKDGGCRCFGFMVSKKKYIYTIDDDCFVAKDPSGKDINVIAQHIKNLETPSTPHYFNTLYDPFRDGTDFVRGYPFSLREGVQTAISHGLWLNIPDYDAPTQLVKPRERNTRYVDAVMTIPKRVLYPMCGMNLAFNRELVGPAMYFGLMGEGQPISRYDDMWAGWAAKVVCDHLGFGVKTGLPYLWHSKASNPFVNLKKEHKGLHWQEDMVPFFQNLRLSKESDTAAKCYMEISNMTKEKLTKVDPYFEKLADAMVVWIEAWEELNPPVKKKQSDGKDVKAK | soluble |
| SLRHQDDIAIEQSHFYVEKALQNRRENSEQFSTTYSFWTDAYVYLGNRVDADWAFTKNNLGSVLYTTNGYDGVFVIDDRGTRYAMLEGELSERSLADSLNADTGDILRSARRAAVDEAAISRYVDFDGAPAILVASAIKPTSDHAPIDLAKASVMVFVDRLTPAKLAKLGGDYGIANLHLLAGGAAGDKESLALEGTPHRLAWVSSRPGSA | soluble |

Source: the DeepSol protein solubility set
